Experimental findings from PubChem BioAssay AID493014 (National Center for Advancing Translational Sciences (NCATS), 2011) are described below.

A short description of this experiment: qHTS Assay to Find Inhibitors of Chronic Active B-Cell Receptor Signaling. As to conditions: ABC-DLBCL IkBa-CBG/CBR reporter, luminescence ratio (green luciferase fused to IkBa over red control in TMD8 lymphoma cells), 4 h. In outline:
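Compounds up to 46 uM were incubated four hours with TMD8 cells whose green CBG68 luciferase is fused to IkappaBalpha; red CBR luminescence normalised the signal, and concentration-effect curves were fitted to fusion, red and ratio data.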
In general terms: Quantitative high-throughput screening tests each substance at several concentrations.

The mark [1] stands for this setting: measured here: CBR red luminescence, cell number.
The mark [2] stands for this setting: measured here: IkBa-CBG green luminescence.

Each structure is given as a SMILES string. The list shows a part of the results. Further columns of the screen follow, without active or inactive calls. Most of these compounds were active or inconclusive in the main read-out, so they are no random draw. The note in brackets gives the kind of curve behind each potency; many fits are weak.

In the case of `CCc1ccc(-c2cc(C)no2)cc1S(=O)(=O)NCCCN1CCN(c2ccccc2)CC1`, the AC50 under setting [1] was 15.8 µM [falling, partial curve, poor fit].
Consider `Cc1noc(C)c1S(=O)(=O)N1CCC(C(=O)N2CCC(N3CCCCC3)CC2)CC1`, for which, under setting [1], the AC50 is 5.62 µM [rising, single point].
On the same count and under the same terms, the value for `COC(=O)c1ccc(Nc2ncnc3c2cnn3C)cc1` was 1.26 µM [rising, full curve, poor fit].
In the case of `Cc1cc2nc(SCC(=O)N(C)C)c3c(c2cc1C)CCCC3`, the concentration at half-maximal activity (AC50) was 35.5 µM [falling, single point] under setting [1] and 12.6 µM [rising, partial curve, poor fit] under setting [2].
Regarding `COc1ccc(C(=O)N/N=C(\C)CC(=O)Nc2ccc3c(c2)OCO3)cc1`, under setting [1], the AC50 was 35.5 µM [falling, single point].
The same measure, in the same setting: the value for `CCN(CCNC(=O)C1=C(C)C(=O)OC12CCC(C)CC2)c1ccccc1` (stereo unspecified) was 35.5 µM [rising, single point]; that for `Cc1cc(=O)oc2cc(NC(=O)CCOc3ccccc3)ccc12` was 14.1 µM [rising, partial curve].
Regarding `Cc1nnc(SCC(=O)n2c3c(c4ccccc42)CCCC3)s1`, the half-maximal activity concentration (AC50) under setting [1] was 3.16 µM [falling, partial curve, poor fit].
Regarding `N=c1n(CCCOc2ccc(Br)cc2)c2ccccc2n1CC(N)=O`, under setting [1], the AC50 was 10 µM [falling, partial curve, poor fit].
Same read-out and setting: the value for `Cc1ccc2c(COC(=O)CNC(=O)c3ccco3)cc(=O)oc2c1C` was 23.1 µM [rising, partial curve, poor fit].
On the same count and under the same terms, the value for `Cc1ccc(S(=O)(=O)NCCC(=O)OCC(=O)Nc2cccc(S(=O)(=O)NC3=NCCCCC3)c2)cc1` was 0.1 µM [rising, full curve, poor fit]; that for `COc1ccc(COc2ccsc2C(=O)Nc2ccc(Cl)c(Cl)c2)cc1` was 5.62 µM [rising, partial curve, poor fit].
Still for that read-out and setting: next, `Cc1ccnc(SCCn2c(N3CCCCC3)nc3c2c(=O)n(C)c(=O)n3C)n1`: 0.447 µM [rising, full curve, poor fit]; `Cc1noc(C)c1-c1ccc2ncnc(NCC3CCCCN3C)c2c1` (stereo unspecified): 5.8 µM [rising, partial curve, poor fit]; `O/N=C(\c1ccc(Cl)cc1Cl)c1ncc(C(F)(F)F)cc1Cl`: 0.092 µM [rising, full curve].
As to `COc1cccc(-c2nc3ccccc3s2)c1`, the AC50 under setting [1] was 3.66 µM [rising, full curve, poor fit].
The same measure, in the same setting: the value for `Cc1nc(-c2ccccc2)sc1C1(C)CC(c2c(Cl)cccc2Cl)=NO1` (stereo unspecified) was 2 µM [rising, partial curve].
As for `CC(C)(C)c1ccc(OCCOc2ccc(C(C)(C)C)cc2NC=O)c(NC=O)c1`, the half-maximal activity concentration (AC50) under setting [1] was 22.4 µM [falling, partial curve, poor fit].
As for `COc1ccc(N=C2S/C(=C\c3ccc(Cl)c([N+](=O)[O-])c3)C(=O)N2CCN(C)C)cc1`, the concentration at half-maximal activity (AC50) under setting [1] is 8.91 µM [falling, partial curve, poor fit].
Take `CC(=O)Nc1ccc(SCC(=O)OCC(=O)NC(=O)NCc2ccco2)cc1`: under setting [1], the concentration at half-maximal activity (AC50) is 17.8 µM [rising, single point].
In the case of `Cc1ccc(C(=O)O/N=C(\N)c2ccccn2)cc1`, the AC50 under setting [1] is 1.26 µM [falling, full curve].
For the compound `COc1ccc(C(=O)Nn2c(SCC(=O)N3CCC(C)CC3)nc3ccccc3c2=O)cc1`, under setting [1], the AC50 was 3.16 µM [falling, full curve, poor fit].
The same measure, in the same setting: the value for `CCn1c(COc2ccc3c(c2)OCO3)nnc1SCC(=O)c1ccc(Cl)cc1` was 2.91 µM [rising, single point].
The same measure, in the same setting: the value for `CCCN(CC(=O)Nc1ccccc1C)CC(=O)Nc1ccc(Br)cc1F` was 12.6 µM [falling, single point]; that for `OC(CNc1nc(C(F)(F)F)nc2ccccc12)c1ccccc1` (stereo unspecified) was 14.1 µM [falling, single point]; that for `CC(C)c1ccc(S(=O)(=O)/N=C2\C=C(NS(=O)(=O)c3ccccc3)C(=O)c3ccccc32)cc1` was 25.1 µM [falling, single point].
As to `CCCCc1cc(=O)oc2cc(C)cc(O)c12`, the concentration at half-maximal activity (AC50) under setting [1] is 3.16 µM [rising, partial curve, poor fit].
On the same count and under the same terms, next, `Cn1c(=O)c(C(=O)Nc2cnccn2)c(O)c2ccccc21`: 11.2 µM [falling, partial curve]; `COc1cccc(Nc2nc3ccccc3n3nnnc23)c1`: 4.11 µM [rising, partial curve, poor fit].
Take `CCCN(CC(=O)Nc1ccccc1OC)C(=O)c1ccc(=O)[nH]c1`: the half-maximal activity concentration (AC50) under setting [1] is 6.31 µM [falling, single point].
Still for that read-out and setting: next, `S=C(NCCN1CCOCC1)NC1CCCCC1`: 0.398 µM [rising, full curve, poor fit].
The same measure, in the same setting: next, `CN1CCN(CCC=C2c3ccccc3Sc3ccc(S(=O)(=O)N(C)C)cc32)CC1`: 29.1 µM [falling, single point]; `Cc1cc(-c2nnc(-c3cccc(C(F)(F)F)c3)o2)no1`: 0.562 µM [rising, full curve, poor fit].
Consider `CCCNC(=O)Nc1cc(OC)c(OC)cc1Cc1nccc2cc(OC)c(OC)cc12`, for which the AC50 under setting [2] was 17.8 µM [falling, partial curve, poor fit].
With `CCn1ncc(Br)c1C(=O)Nc1ccn(C23CC4CC(CC(C4)C2)C3)n1`, the AC50 under setting [1] was 8.2 µM [rising, partial curve, poor fit].
Still for that read-out and setting: next, `COCCn1c(-c2ccc(SC)cc2)nc2c1c(=O)[nH]c(=O)n2CC(C)C`: 0.224 µM [rising, full curve, poor fit].
Still for that read-out and setting: the value for `O=C(O)c1c(-n2cccc2)sc2c1CCCC2` was 5.62 µM [rising, single point].
Still for that read-out and setting: the value for `CC12CCC(=O)N1C(C(=O)Nc1nc(-c3ccccc3)cs1)CS2` (stereo unspecified) was 0.0731 µM [falling, full curve, poor fit]; that for `CCOc1ccc(NC(=O)c2ccc(NS(=O)(=O)c3cccs3)cc2)cc1` was 11.2 µM [falling, partial curve].
For the compound `Cn1ncc(C(=O)Nc2ccc(OC(F)(F)F)cc2)c1-n1cccc1`, the AC50 under setting [1] was 12.6 µM [rising, partial curve, poor fit].

A word on the AC50: it is the concentration at which the activity in the assay is half-maximal.
